Data as given in the supplement of paper PMC12067093, “Discovery and optimisation of a covalent ligand for TRIM25 and its application to targeted protein ubiquitination” (Chemical Science, 2025).
This is one part of the list.

Amino acid sequences for entries named in this document (tags omitted). A change or cut given only in a name is not applied to a line headed by its entry.
UniProt Q8N5C6: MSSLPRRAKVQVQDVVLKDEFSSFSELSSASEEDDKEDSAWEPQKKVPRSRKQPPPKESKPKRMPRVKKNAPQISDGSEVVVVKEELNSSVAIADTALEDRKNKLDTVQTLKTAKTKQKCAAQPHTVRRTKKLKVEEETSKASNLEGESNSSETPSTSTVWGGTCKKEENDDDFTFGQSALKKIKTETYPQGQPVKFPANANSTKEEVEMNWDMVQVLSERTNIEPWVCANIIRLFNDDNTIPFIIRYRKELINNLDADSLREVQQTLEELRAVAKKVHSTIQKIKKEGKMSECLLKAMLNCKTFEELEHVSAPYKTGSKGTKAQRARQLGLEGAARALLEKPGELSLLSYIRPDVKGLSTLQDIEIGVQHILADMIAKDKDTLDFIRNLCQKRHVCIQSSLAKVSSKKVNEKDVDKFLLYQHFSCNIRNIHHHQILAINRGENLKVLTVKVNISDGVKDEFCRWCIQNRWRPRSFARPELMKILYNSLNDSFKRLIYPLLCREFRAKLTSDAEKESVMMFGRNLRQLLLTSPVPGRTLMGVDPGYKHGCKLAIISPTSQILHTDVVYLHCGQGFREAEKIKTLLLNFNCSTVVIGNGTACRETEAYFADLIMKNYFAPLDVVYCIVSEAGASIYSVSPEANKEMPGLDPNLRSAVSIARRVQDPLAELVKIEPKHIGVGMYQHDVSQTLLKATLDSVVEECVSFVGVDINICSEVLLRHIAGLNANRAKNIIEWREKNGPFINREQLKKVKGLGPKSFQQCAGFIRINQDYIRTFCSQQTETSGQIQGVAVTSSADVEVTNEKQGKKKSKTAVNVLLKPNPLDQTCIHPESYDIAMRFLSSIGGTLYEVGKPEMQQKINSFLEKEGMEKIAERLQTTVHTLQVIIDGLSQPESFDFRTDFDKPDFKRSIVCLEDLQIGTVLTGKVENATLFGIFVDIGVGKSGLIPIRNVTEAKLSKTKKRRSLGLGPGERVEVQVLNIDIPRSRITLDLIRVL
UniProt Q5M775: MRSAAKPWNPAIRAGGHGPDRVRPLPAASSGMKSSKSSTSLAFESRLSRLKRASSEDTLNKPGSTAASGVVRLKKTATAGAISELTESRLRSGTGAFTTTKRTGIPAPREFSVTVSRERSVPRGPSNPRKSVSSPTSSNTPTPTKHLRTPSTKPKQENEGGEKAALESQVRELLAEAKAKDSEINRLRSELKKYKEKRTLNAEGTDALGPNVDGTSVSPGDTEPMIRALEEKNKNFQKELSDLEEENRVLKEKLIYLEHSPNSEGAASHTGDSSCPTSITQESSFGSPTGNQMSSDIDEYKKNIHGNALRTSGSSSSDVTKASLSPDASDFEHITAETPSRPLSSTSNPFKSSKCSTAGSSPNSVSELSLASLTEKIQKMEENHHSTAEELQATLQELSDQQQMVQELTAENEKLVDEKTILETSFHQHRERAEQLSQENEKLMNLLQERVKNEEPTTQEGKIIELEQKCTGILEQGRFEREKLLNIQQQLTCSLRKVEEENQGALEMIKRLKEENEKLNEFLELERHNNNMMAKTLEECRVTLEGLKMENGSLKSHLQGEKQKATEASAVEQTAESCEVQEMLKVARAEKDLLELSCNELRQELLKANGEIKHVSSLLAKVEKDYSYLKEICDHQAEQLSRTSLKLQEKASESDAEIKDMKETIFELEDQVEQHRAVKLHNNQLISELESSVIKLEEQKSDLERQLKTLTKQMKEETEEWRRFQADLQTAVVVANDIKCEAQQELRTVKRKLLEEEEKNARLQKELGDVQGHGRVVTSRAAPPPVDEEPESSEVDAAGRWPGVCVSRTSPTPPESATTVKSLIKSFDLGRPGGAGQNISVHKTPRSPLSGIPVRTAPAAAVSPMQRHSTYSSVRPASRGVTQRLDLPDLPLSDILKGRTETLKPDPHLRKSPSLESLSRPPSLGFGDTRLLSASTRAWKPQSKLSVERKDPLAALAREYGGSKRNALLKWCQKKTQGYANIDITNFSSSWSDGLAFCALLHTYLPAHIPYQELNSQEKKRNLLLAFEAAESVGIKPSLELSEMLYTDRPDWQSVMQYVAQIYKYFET
UniProt Q8TCT8: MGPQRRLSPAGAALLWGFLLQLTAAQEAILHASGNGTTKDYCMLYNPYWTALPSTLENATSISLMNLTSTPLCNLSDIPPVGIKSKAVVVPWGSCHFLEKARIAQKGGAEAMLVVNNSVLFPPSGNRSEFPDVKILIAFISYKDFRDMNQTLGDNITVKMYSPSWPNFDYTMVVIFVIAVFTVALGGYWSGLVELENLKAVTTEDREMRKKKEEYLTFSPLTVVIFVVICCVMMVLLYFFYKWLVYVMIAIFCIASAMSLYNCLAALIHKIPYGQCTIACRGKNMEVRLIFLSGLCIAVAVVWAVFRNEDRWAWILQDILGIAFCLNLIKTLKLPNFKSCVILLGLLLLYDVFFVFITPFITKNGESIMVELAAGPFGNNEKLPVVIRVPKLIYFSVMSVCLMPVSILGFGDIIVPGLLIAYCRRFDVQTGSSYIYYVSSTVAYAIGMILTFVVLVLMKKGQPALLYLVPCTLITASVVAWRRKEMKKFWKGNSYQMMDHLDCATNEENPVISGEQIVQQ
UniProt P62318, whole entry, looked up: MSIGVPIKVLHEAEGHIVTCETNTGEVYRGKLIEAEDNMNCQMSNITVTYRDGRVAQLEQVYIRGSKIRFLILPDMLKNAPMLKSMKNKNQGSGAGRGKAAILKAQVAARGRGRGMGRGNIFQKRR
UniProt Q9UHB9: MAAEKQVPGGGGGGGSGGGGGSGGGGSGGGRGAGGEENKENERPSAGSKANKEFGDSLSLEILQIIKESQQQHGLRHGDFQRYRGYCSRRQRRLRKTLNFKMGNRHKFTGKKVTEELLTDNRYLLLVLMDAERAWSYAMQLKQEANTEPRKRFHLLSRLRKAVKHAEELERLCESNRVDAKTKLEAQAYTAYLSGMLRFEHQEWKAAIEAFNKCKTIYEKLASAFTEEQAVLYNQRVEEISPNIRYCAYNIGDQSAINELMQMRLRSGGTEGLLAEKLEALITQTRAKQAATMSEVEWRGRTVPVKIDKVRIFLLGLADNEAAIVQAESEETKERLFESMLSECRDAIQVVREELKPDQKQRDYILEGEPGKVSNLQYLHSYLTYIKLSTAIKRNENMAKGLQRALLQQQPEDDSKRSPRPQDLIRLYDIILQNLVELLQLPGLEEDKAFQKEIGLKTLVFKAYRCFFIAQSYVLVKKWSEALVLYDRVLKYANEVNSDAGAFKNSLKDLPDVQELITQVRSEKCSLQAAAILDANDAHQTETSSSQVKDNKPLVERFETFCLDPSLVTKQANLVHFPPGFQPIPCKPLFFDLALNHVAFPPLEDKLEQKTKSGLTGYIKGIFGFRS
UniProt P57768: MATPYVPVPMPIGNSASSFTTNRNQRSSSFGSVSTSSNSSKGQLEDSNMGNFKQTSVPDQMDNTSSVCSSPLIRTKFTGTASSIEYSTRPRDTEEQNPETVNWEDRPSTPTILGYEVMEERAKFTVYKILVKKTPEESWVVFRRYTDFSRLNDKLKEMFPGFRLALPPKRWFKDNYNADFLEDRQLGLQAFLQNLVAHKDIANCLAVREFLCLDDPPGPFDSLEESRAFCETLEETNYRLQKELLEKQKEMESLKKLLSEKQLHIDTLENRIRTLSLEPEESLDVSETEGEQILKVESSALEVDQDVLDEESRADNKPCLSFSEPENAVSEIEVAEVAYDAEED
UniProt Q92673: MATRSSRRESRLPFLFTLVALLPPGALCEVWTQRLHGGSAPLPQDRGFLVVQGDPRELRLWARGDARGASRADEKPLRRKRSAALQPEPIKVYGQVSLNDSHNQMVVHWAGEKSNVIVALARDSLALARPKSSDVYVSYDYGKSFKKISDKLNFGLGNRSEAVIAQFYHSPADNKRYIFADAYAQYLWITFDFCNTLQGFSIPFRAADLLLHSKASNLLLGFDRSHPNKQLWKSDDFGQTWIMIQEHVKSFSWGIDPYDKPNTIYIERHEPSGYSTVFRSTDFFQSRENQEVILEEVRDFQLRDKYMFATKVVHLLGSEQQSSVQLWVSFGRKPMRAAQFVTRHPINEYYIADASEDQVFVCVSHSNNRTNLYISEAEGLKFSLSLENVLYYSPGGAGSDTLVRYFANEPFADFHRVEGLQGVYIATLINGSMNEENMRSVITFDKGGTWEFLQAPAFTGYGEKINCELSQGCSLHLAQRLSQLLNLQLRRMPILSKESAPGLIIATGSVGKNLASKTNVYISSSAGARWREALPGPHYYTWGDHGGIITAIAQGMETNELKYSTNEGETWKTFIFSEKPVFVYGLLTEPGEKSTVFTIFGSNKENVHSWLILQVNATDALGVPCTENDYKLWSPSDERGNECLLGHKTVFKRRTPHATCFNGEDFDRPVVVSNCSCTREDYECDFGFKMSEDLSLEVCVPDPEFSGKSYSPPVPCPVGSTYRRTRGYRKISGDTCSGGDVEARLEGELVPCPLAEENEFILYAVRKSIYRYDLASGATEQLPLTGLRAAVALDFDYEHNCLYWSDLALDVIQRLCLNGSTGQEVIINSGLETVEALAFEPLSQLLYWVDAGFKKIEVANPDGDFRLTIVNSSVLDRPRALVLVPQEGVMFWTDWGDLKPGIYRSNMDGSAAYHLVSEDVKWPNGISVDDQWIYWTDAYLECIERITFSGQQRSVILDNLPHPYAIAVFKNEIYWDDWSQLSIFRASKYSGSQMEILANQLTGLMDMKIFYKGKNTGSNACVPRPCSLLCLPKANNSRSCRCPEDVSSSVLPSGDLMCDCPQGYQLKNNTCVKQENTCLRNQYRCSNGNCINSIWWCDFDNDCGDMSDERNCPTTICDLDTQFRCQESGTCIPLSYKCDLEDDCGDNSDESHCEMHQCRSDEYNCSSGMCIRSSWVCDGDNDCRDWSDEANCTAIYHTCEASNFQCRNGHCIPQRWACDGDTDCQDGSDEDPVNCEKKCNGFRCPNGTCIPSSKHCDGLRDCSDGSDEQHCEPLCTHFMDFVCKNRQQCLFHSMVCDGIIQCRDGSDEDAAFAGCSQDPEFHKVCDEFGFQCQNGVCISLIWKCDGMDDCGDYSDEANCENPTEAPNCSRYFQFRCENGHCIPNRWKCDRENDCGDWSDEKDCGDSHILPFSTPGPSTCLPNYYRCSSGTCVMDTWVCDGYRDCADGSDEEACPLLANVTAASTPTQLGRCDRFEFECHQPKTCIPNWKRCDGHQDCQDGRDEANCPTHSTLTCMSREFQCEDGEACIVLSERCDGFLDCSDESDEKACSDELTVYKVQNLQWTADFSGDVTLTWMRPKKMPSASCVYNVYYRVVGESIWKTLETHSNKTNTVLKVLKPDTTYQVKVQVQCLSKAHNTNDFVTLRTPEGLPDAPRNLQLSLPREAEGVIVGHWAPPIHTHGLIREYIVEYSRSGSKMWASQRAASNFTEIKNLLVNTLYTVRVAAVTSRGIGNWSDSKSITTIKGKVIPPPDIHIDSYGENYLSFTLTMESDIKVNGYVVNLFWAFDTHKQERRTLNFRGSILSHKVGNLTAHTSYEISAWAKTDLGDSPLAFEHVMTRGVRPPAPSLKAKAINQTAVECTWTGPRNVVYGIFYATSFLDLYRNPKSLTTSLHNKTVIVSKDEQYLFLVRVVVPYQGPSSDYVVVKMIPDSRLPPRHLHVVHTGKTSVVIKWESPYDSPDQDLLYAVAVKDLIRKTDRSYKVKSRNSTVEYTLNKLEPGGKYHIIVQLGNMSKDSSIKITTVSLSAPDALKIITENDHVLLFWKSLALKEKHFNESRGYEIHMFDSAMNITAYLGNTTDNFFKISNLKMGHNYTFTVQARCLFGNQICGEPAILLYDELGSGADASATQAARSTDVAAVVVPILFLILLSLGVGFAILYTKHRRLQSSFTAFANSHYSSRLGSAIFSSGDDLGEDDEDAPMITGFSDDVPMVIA
UniProt P08240: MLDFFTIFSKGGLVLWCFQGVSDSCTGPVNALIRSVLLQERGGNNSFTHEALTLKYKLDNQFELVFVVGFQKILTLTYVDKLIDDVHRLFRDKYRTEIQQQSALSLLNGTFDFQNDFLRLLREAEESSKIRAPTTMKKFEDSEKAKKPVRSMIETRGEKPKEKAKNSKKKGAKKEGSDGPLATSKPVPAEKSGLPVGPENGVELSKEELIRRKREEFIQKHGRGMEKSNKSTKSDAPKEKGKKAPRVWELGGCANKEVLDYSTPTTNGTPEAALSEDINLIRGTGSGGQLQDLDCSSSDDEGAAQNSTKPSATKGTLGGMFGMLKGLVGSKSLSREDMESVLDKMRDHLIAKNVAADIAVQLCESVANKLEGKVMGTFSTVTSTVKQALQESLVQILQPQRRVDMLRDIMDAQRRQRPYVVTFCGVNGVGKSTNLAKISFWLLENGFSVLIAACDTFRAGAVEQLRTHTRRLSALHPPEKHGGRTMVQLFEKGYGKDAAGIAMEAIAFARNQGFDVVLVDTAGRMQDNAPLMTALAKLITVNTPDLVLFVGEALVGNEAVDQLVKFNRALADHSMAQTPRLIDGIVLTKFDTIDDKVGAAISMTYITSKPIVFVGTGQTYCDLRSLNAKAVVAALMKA

Compound: Cc1cc(ccc1-c1ccccc1)C(=O)N1CCCN(CC1)C(=O)CCl [compound 10]
Assay: probe-labelled cysteine peptide fold change vs DMSO (competition) (log2 fold change); higher = less target engagement (more negative = stronger competition)
Details: THP-1, incubation time: 4 h
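Note: competitive profiling in live THP-1 cells: cysteine peptides tagged with an iodoacetamide desthiobiotin (IA-DTB) probe, intensity after compound treatment relative to DMSO-treated cells.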

| Target | probe-labelled cysteine peptide fold change (10 µM) | probe-labelled cysteine peptide fold change (50 µM) |
| --- | --- | --- |
| SORD_Q00796_165_LPDNVTFEEGALIEPLSVGIHACR (UniProt Q00796) | 0.00881 | 0.188 |
| SRBD1_Q8N5C6_397_HVCIQSSLAK (UniProt Q8N5C6) | -0.0282 | -0.148 |
| SPECC1_Q5M775_493_LLNIQQQLTCSLR (UniProt Q5M775) | -0.0188 | -0.495 |
| SOGA1_O94964_1113_EITNCVR (UniProt O94964) | -0.0397 | -0.447 |
| SPPL2A_Q8TCT8_95_AVVVPWGSCHFLEK (UniProt Q8TCT8) | -0.069 | -0.0495 |
| SNRPD3_P62318_41_LIEAEDNMNCQMSNITVTYR (UniProt P62318) | 0.0675 | 0.224 |
| SPTBN1_Q01082_619+624_VAHMEFCYQELCQLAAER (UniProt Q01082) | -0.357 | 0.0504 |
| SRP68_Q9UHB9_87_YRGYCSR (UniProt Q9UHB9) | -0.0459 | -0.105 |
| SNX29_Q8TEQ0_121_CALNEHSLER (UniProt Q8TEQ0) | -0.082 | -0.0504 |
| SNW1_Q13573_250_IPPCISNWK (UniProt Q13573) | -0.157 | -0.565 |
| SPTLC1_O15269_133_KYGVGTCGPR (UniProt O15269) | -0.399 | -0.44 |
| SPAG7_O75391_191_TYGCVPVANKR (UniProt O75391) | -0.315 | -0.53 |
| SRC_P12931_241_HADGLCHR (UniProt P12931) | -0.0104 | 0.065 |
| SPINT1_O43278_424_FTYGGCYGNK (UniProt O43278) | -0.0932 | -0.709 |
| SNX16_P57768_230_AFCETLEETNYR (UniProt P57768) | -0.196 | -0.00342 |
| SORL1_Q92673_752_LEGELVPCPLAEENEFILYAVR (UniProt Q92673) | 0.124 | 0.148 |
| SRP68_Q9UHB9_562_FETFCLDPSLVTK (UniProt Q9UHB9) | -0.0556 | -0.0627 |
| SRBD1_Q8N5C6_827_TAVNVLLKPNPLDQTCIHPESYDIAMR (UniProt Q8N5C6) | -0.0262 | 0.0387 |
| SON_P18583_2070_ANAAAMCAK (UniProt P18583) | -0.121 | -0.254 |
| SRPRA_P08240_424_RQRPYVVTFCGVNGVGK (UniProt P08240) | -0.134 | 0.168 |
| SORL1_Q92673_643_LWSPSDERGNECLLGHK (UniProt Q92673) | -0.257 | -0.573 |

2 entries from above, with tabs.
Target	probe-labelled cysteine peptide fold change (10 µM)	probe-labelled cysteine peptide fold change (50 µM)
SPPL2A_Q8TCT8_95_AVVVPWGSCHFLEK (UniProt Q8TCT8)	-0.069	-0.0495
SNRPD3_P62318_41_LIEAEDNMNCQMSNITVTYR (UniProt P62318)	0.0675	0.224
